We go through 14 targets from the supplement of paper PMC11006884.

Sequences of proteins named here, by UniProt entry; tags and fusion partners are left off. A change or cut given only in a name is not applied to a line headed by its entry.
UniProt Q9NRG9: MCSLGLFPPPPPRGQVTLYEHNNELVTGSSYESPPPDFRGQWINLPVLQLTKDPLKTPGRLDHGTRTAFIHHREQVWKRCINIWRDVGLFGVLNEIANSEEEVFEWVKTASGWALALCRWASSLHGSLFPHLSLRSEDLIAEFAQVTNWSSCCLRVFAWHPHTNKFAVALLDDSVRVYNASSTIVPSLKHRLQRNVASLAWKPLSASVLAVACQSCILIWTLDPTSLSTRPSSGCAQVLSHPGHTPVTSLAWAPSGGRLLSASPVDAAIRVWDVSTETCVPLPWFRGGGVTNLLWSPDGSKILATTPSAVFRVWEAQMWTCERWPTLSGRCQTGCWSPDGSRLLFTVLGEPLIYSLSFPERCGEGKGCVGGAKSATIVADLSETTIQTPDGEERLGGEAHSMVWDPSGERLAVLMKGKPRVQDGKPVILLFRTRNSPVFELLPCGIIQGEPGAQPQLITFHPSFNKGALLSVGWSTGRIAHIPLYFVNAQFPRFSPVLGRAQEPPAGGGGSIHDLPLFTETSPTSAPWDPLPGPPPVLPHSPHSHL
UniProt Q9HAV4: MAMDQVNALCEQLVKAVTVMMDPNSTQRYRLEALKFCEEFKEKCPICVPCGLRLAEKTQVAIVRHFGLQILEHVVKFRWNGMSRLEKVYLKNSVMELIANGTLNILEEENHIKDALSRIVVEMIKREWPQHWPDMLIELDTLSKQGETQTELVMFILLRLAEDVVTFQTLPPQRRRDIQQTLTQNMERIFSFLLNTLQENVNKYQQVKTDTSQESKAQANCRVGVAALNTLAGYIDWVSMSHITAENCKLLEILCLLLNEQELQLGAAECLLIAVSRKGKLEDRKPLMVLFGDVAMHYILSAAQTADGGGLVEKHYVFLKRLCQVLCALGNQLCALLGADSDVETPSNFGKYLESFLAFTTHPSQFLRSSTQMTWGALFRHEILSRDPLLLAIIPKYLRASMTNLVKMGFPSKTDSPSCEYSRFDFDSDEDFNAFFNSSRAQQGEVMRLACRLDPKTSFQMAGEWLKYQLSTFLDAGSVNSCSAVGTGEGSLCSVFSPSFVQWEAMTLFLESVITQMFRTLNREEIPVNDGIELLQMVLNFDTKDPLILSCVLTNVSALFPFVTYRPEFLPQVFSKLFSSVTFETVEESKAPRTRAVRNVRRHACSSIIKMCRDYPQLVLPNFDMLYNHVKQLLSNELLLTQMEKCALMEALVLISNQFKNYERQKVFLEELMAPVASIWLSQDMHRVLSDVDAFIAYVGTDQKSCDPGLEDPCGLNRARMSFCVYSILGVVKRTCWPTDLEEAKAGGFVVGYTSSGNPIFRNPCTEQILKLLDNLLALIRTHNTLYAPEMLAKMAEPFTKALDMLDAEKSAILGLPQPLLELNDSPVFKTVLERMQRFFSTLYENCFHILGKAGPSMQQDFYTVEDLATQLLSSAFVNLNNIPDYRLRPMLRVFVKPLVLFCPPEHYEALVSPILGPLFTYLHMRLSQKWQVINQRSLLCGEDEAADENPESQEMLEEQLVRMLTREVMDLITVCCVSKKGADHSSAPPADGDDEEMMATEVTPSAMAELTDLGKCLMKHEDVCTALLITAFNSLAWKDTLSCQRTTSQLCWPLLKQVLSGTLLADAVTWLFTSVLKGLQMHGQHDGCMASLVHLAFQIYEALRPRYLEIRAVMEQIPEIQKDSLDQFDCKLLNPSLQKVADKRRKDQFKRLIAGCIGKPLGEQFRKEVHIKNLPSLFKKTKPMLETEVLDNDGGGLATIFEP
UniProt Q9HCU5: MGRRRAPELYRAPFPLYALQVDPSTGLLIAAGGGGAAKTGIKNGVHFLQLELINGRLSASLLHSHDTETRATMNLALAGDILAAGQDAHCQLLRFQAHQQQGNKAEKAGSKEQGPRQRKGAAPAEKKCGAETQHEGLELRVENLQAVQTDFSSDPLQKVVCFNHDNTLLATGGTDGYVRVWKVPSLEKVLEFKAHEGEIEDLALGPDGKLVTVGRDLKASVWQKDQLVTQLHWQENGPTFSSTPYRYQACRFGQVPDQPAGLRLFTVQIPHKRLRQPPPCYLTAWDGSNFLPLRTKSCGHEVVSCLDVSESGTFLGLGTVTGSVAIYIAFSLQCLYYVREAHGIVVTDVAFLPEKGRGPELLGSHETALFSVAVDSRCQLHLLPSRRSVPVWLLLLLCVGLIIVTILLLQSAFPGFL
UniProt Q9NRY4: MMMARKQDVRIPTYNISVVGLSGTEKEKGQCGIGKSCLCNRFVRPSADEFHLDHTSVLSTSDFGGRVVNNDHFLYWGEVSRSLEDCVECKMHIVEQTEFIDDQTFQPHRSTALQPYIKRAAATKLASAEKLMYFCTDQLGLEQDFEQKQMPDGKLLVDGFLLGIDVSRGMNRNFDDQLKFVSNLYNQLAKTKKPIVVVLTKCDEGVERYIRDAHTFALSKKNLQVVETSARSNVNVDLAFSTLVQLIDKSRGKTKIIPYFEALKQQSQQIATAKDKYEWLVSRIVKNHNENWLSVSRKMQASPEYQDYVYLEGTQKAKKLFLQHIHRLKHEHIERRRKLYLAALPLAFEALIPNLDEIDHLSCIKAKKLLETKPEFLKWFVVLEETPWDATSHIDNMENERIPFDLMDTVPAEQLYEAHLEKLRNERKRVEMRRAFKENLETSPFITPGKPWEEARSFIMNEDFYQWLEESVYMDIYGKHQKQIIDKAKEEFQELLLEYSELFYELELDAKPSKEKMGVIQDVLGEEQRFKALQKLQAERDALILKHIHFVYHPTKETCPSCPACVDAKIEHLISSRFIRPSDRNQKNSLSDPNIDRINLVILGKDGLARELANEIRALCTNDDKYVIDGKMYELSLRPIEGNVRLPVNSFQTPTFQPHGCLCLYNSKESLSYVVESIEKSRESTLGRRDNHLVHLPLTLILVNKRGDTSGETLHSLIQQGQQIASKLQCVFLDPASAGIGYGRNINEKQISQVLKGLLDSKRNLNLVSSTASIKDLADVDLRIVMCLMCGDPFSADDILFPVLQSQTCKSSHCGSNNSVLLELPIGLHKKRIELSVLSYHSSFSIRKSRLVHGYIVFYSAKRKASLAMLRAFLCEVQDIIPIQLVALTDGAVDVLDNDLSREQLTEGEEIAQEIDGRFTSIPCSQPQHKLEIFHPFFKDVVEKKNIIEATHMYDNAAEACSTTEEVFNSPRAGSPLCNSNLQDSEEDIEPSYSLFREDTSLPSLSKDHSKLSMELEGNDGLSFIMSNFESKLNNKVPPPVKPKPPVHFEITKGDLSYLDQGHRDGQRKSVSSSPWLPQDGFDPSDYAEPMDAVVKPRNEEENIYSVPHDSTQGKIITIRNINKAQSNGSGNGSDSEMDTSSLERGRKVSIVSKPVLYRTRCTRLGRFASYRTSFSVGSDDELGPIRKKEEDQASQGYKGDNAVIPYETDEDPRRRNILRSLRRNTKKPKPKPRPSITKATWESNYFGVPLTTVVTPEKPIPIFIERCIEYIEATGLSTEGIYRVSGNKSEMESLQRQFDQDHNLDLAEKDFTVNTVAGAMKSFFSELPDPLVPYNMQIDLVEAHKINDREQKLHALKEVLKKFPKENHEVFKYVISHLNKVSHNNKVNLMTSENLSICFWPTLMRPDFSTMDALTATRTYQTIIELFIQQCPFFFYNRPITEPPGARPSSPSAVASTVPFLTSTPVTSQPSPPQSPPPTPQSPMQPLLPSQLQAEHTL
UniProt Q9HD45: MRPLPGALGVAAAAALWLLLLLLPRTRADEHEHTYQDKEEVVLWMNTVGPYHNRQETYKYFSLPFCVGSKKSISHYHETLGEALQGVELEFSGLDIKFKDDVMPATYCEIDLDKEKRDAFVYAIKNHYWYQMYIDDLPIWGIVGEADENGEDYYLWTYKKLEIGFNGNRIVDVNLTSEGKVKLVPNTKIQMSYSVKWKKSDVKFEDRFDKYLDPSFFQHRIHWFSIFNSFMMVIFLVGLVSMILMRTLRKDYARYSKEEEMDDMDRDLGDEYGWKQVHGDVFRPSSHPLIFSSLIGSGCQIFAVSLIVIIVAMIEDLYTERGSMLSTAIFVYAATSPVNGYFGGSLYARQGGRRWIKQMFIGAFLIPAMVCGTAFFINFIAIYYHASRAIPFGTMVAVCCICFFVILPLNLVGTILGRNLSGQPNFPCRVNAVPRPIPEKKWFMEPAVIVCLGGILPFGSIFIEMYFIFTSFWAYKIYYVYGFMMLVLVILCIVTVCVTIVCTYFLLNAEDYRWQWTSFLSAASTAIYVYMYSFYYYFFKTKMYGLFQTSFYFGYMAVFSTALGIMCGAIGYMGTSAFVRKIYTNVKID
UniProt Q9H6H4: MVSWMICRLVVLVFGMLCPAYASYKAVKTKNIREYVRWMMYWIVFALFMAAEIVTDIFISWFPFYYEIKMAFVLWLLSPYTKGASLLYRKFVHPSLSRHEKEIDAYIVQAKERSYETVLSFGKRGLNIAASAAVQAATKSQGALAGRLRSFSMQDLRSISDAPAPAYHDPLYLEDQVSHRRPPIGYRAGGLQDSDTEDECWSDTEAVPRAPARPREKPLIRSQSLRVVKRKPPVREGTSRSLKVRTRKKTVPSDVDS
UniProt Q9NP79: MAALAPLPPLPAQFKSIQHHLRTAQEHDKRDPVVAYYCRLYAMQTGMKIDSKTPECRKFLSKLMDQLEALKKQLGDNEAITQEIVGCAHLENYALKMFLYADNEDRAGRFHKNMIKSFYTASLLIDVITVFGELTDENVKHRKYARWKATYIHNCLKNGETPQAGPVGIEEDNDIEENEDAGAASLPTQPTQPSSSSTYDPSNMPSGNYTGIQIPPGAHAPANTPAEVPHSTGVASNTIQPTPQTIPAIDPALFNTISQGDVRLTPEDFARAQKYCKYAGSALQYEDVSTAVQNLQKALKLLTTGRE
UniProt Q9H3Q1: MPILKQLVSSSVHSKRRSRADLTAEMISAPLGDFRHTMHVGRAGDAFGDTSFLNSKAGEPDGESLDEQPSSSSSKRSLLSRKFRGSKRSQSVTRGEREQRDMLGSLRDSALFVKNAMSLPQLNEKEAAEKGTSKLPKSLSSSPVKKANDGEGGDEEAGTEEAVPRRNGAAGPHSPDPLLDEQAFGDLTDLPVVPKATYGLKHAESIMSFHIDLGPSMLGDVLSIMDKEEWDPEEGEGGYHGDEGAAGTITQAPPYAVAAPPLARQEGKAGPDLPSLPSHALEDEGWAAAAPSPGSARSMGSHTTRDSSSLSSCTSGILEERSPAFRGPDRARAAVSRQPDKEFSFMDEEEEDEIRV
UniProt Q9H3U1: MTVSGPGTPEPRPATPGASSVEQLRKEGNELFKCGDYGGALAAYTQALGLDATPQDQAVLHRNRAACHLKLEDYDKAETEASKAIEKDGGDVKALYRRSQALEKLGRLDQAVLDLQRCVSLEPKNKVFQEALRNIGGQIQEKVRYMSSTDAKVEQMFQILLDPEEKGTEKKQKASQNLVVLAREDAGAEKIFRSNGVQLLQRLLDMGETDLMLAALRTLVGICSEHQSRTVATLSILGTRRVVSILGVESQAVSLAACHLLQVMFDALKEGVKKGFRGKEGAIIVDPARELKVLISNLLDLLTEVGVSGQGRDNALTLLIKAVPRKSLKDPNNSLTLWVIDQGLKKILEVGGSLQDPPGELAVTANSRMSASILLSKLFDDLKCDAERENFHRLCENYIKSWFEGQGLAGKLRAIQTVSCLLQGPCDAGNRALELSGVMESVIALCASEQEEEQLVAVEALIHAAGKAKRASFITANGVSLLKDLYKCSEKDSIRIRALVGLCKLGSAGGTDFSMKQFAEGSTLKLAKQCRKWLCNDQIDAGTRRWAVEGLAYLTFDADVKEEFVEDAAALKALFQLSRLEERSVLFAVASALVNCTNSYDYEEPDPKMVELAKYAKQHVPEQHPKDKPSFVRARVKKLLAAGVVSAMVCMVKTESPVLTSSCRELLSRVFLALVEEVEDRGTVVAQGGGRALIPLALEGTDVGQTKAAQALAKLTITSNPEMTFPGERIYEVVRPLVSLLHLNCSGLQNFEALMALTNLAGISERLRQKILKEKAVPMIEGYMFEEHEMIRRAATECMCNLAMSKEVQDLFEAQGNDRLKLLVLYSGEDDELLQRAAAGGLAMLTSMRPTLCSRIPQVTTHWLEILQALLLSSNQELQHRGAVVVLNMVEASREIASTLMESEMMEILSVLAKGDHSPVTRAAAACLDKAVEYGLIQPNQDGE

Only a part is listed here, and it is no random draw.

Compound in the assay: COC(=O)C#Cc1ccccc1 [methyl 3-phenylpropiolate]
In words: log2 ratio of iodoacetamide-alkyne labeling of the cysteine site, DMSO over compound (competition); higher = stronger covalent engagement of the cysteine by the compound, active = 1 or more. The conditions noted are these: 500 µM; treatment time 1 h; system: HEK293T cell lysate. The procedure, abridged:
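After 1 h at ambient temperature with vehicle or electrophile (500 µM), HEK293T lysate (2 mg/mL) was labelled for 1 h with iodoacetamide alkyne and clicked to sCIP-TMT reagents. Pooled samples were trypsin-digested overnight at 37 °C, streptavidin-enriched, acid-eluted and analysed by Orbitrap Eclipse LC-MS/MS with FAIMS, then quantified in FragPipe over three replicates with duplicate channels. A cysteine's log2 competition ratio is its mean control-channel over mean compound-channel reporter intensity. Cysteines quantified in only one replicate were not included.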
As for AAAS C444 (UniProt Q9NRG9), the “log2 ratio of iodoacetamide-alkyne labeling” value (“log2 ratio” below) is inactive: -0.0404.

Take RNPEP C223 (UniProt Q9H4A4): the “log2 ratio” value is inactive: 0.512. Then UPF2 C578 (UniProt Q9HAU5), with inactive: 0.35; and MOV10 C16 (UniProt Q9HCE1), with inactive: 0.0189; and XPO5 C706 (UniProt Q9HAV4), with inactive: 0.381.

Turning to PREB C128 (UniProt Q9HCU5), the “log2 ratio” value is inactive: 0.545. The value for UniProt Q9NRY4_C730 was inactive: 0.388; that for TM9SF3 C428 (UniProt Q9HD45) was inactive: -0.0181; that for REEP4 C200 (UniProt Q9H6H4) was inactive: 0.145. Consider VTA1 C38 (UniProt Q9NP79), for which the “log2 ratio” value was inactive: 0.205. Then BRD7 C338 (UniProt Q9NPI1), with active: 1.01. Then CDC42EP4 C313 (UniProt Q9H3Q1), with inactive: 0.354. Take FKRP C296 (UniProt Q9H9S5): the “log2 ratio” value was inactive: 0.158. Then UNC45A C503 (UniProt Q9H3U1), with inactive: 0.106.
